# Results reported in publication PMC11290356.
# Chains of the proteins cited; added tags and fusions are not shown.
# UniProt Q9NR19: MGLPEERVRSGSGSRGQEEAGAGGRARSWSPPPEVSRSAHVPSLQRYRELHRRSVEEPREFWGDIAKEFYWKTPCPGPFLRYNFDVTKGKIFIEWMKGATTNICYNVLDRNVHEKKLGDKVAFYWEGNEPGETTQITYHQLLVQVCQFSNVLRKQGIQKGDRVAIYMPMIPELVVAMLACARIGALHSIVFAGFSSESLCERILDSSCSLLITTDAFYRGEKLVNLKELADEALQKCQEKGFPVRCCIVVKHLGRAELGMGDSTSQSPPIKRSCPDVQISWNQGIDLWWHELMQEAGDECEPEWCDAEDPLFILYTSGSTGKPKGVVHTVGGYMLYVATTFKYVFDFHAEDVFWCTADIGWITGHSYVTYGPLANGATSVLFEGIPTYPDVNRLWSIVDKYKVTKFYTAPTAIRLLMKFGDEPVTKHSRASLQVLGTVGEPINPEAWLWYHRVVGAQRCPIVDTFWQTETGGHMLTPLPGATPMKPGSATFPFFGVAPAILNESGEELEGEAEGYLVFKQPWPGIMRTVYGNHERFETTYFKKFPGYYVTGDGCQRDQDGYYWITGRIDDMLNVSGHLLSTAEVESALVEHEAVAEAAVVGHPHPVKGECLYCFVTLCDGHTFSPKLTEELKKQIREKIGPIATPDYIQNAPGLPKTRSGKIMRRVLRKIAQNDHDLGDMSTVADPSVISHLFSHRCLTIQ
# No constants are given. Whether binding was seen depends on the method and setting. In cells and extracts the contact can be indirect. Some binding calls cover weakened binding; strength is not graded here.
# Molecular target: acetyl-coenzyme A (CoA) synthetase 2 (ACSS2) (human (endogenous in A375)) (UniProt Q9NR19)
# Experiment: co-IP; anti-ACSS2 antibody (IgG as control) on SureBeads Protein A magnetic beads; A375 whole-cell lysate and lysate of isolated nuclei, 1x RIPA buffer, overnight at 4°C, washed 3 times with 0.1% TBST; Western blot
binder,measurement,value
"aldehyde dehydrogenase 1A3 (ALDH1A3) (enzyme, UniProt P47895 1-512) MATANGAVENGQPDRKPPALPRPIRNLEVKFTKIFINNEWHESKSGKKFATCNPSTREQICEVEEGDKPDVDKAVEAAQVAFQRGSPWRRLDALSRGRLLHQLADLVERDRATLAALETMDTGKPFLHAFFIDLEGCIRTLRYFAGWADKIQGKTIPTDDNVVCFTRHEPIGVCGAITPWNFPLLMLVWKLAPALCCGNTMVLKPAEQTPLTALYLGSLIKEAGFPPGVVNIVPGFGPTVGAAISSHPQINKIAFTGSTEVGKLVKEAASRSNLKRVTLELGGKNPCIVCADADLDLAVECAHQGVFFNQGQCCTAASRVFVEEQVYSEFVRRSVEYAKKRPVGDPFDVKTEQGPQIDQKQFDKILELIESGKKEGAKLECGGSAMEDKGLFIKPTVFSEVTDNMRIAKEEIFGPVQPILKFKSIEEVIKRANSTDYGLTAAVFTKNLDKALKLASALESGTVWINCYNALYAQAPFGGFKMSGNGRELGEYALAEYTEVKTVTIKLGDKNP",binding,binds
